# Results taken from US20030152986A1, “Method for sorting antifungal molecules acting on the glucanosyltransferase activity” (Institut Pasteur, priority 1996, published 2003).
# Sequences of proteins named here, by UniProt entry; tags and fusion partners are left off. Residues count along the entry.
# UniProt B0XT72, 28-419: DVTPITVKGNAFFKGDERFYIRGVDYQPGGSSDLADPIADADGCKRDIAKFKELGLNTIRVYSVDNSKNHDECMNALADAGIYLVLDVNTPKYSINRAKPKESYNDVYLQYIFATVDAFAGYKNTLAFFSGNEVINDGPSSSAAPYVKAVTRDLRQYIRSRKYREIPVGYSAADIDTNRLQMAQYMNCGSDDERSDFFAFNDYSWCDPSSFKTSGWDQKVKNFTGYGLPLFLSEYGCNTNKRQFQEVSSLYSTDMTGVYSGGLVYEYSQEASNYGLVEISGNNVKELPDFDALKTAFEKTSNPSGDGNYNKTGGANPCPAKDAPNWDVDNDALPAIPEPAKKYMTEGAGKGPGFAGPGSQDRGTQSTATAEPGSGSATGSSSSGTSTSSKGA
# Some of these results come from one statement about several compounds together.
# Molecular target: T1, 49 kDa β-(1-3)-glucanosyltransferase (BGT2) (Aspergillus fumigatus, UniProt B0XT72)
# T1 construct: from tissue; host or cells: Aspergillus fumigatus CBS 144-89 mycelium, cell wall autolysate; four ion-exchange steps and one gel filtration
# Experiment: Transferase assay with reduced (^3H-marked) laminarioligosaccharides, products separated by HPAEC
# Assay type: biochemical
# Conditions: with rG11 as donor
# Experimental: The enzyme fractions were assayed for transferase activity by incubation in 50 mM Na citrate, pH 5.0 at 37° C. (10 μl volume per assay) with a laminarioligosaccharide reduced with borohydride (8 mM final) of at least size G10. Samples (3 μl) were taken at different times, 50 mM NaOH cooled in ice (47 μl) was added to terminate the reaction, and the mixture was frozen until analyzed by high-performance anion-exchange chromatography (HPAEC). Since the peak intensities detected by Pulsed Electrochemical Detector (PED) varied from day to day, the transferase activity was quantified by use of reduced laminarioligosaccharides marked with ^3H as substrates and measurement of the appearance of the marking in the products after separation by HPAEC chromatography, using the on-line Radiomatic 150TR scintillation rate analysis apparatus (Packard). […]
# The samples from the transferase tests were analyzed on a Dionex CarboPac PA1 analytical column (4×250 mm) (with a PA1 reference column) on a Dionex HPAEC-type system with pulsed electrochemical detection (PED-2 cell), fitted with a combination of pH-Ag/AgCl reference electrodes and using a potential of 0.4 V for the first 0.5 s of detection. […]
# By using rG11 as substrate, it was impossible to calculate an apparent Km corresponding to the two steps of the reaction. […] The initial reaction rate was determined by measuring the appearance of marked rG12.
substance,measurement,value
reduced laminarihexose [[^3H]-rG6],use as acceptor by the transferase,additional transferase products
